Data published in the supplement of paper PMC5949888.
± gives the standard deviation of the averaged measurements. Most values lie at the floor of the assay. Slopes are relative: functional sequences can read slightly below zero.

These substances were tested on Saccharomyces cerevisiae PS128 hsf1 delta, HSF1(1-493) fusion (assay: growth estimate (transactivation domain function in HSF1 fusion, heat-shock survival) (a.u. (slope of normalised read count over time)); higher = stronger growth at 37°C, i.e. more transactivation activity). Settings: library: random library.
Experimental: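 Random 60-nt DNA library encoding peptides of up to 20 aa, fused to the C-terminus of yeast HSF1 residues 1-493 (C-terminal TAD deleted) and expressed from the native HSF1 promoter on a CEN plasmid in hsf1-deleted S. cerevisiae PS128. Cells were selected at 37°C on -trp 5-FOA plates for 0, 2, 4, 6 and 8 days and amplicons were sequenced. Growth estimate is the slope of a robust linear fit of total-sum-normalised read counts (normalised to the first time point) over time, using at least 2 replicates. Sequences are classed functional (TAD activity) above a threshold of -0.13, set from stop-codon control sequences.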

Substance	growth estimate
RVVISCKCIIVMFRGRLLSC	< -0.25
TVDTRLHVWLGRYDCFVALK	< -0.25
SCQAQRQSSRSGKR	< -0.25
ELPTGGRA	< -0.25
SGEFRDSFPKRVGLLVLVPS	< -0.25
RSGLSPLSLVVGPPLVWASL	< -0.25
HTGITETCGSRWIPWISAHR	< -0.25
RPQTEPKFRRSSIPLAGCEV	< -0.25
TCHQVLADNTAEAFCIQLVA	< -0.25
PGTIHIAKS	< -0.25
SSEGGVQDKTPPMLLISDSS	< -0.25
EAKDEKGFDTNAFCSKLWKA	< -0.25
NMQEHIPKWHDREFLLGGIF	0.0112
KCNTLTQFRP	< -0.25
DVVNESSPREISSYRARRIT	< -0.25
SMTL	< -0.25
RDLGPETVCYGAIGGRVIRH	< -0.25
DSCGCPDGIELGSVSPRVFT	< -0.25
VQGRFCAK	< -0.25
PSQSLDRSGLIPWKYISKLT	< -0.25
DAQQDLSSEMDREIHGMSAR	< -0.25
VLPPEERVHMG	< -0.25
IDRTPWPNVAGPRPPRCVYQ	< -0.25
PIEELQV	< -0.25

Substance	growth estimate
PTLSKLGPG	< -0.25
SSIAVIHCQFHTVHSLLGTS	< -0.25
IAVFPLQVIGRQVGQPVC	< -0.25
PDRRGELCKPQKLSICRLRI	< -0.25
LLAWQVIAM	< -0.25
RREGQAVSRLGSDRPSYARV	< -0.25
FTRTTAHYPRVCNGSRSR	< -0.25
AHLTYWVERRQSGCYGKSLC	< -0.25
LFFFNKQLLPSKFAFVKWEC	< -0.25
LIESAV	< -0.25
YSRSRARSRTAEGRIDQGLG	< -0.25
RSWNS	< -0.25
KICCNQSTLRWDSMVVIEAP	< -0.25
WHRAGSLYKSNTLGMIRPGL	-0.219
DLYGKCGGYDGFRATSLR	< -0.25
AMAV	< -0.25
RYCPLESRFLGRVPIQYSVG	< -0.25
PEYFVAFANPINSGGGGCGS	< -0.25
ESGWAR	< -0.25
FNIVRGLPHTD	< -0.25
SRFMRSG	< -0.25
PLPR	< -0.25
GERACGGFNHII	< -0.25
QPVFTRQPSSRRRGHLNALR	-0.222

A different layout for some results above.
Substance,growth estimate
SSEGGVQDKTPPMLLISDSS,< -0.25
EAKDEKGFDTNAFCSKLWKA,< -0.25
NMQEHIPKWHDREFLLGGIF,0.0112
KCNTLTQFRP,< -0.25
DVVNESSPREISSYRARRIT,< -0.25
SMTL,< -0.25
RDLGPETVCYGAIGGRVIRH,< -0.25
DSCGCPDGIELGSVSPRVFT,< -0.25
VQGRFCAK,< -0.25
PSQSLDRSGLIPWKYISKLT,< -0.25
DAQQDLSSEMDREIHGMSAR,< -0.25
VLPPEERVHMG,< -0.25
IDRTPWPNVAGPRPPRCVYQ,< -0.25
PIEELQV,< -0.25
PTLSKLGPG,< -0.25
SSIAVIHCQFHTVHSLLGTS,< -0.25
IAVFPLQVIGRQVGQPVC,< -0.25
PDRRGELCKPQKLSICRLRI,< -0.25
LLAWQVIAM,< -0.25
RREGQAVSRLGSDRPSYARV,< -0.25
FTRTTAHYPRVCNGSRSR,< -0.25
AHLTYWVERRQSGCYGKSLC,< -0.25
LFFFNKQLLPSKFAFVKWEC,< -0.25
LIESAV,< -0.25
YSRSRARSRTAEGRIDQGLG,< -0.25
RSWNS,< -0.25
KICCNQSTLRWDSMVVIEAP,< -0.25
WHRAGSLYKSNTLGMIRPGL,-0.219
DLYGKCGGYDGFRATSLR,< -0.25
AMAV,< -0.25
RYCPLESRFLGRVPIQYSVG,< -0.25
PEYFVAFANPINSGGGGCGS,< -0.25
ESGWAR,< -0.25
FNIVRGLPHTD,< -0.25
SRFMRSG,< -0.25

(next part)

Substance	growth estimate
LLDAGPAEIRNFRS	< -0.25
QCRGWLYGHAPLAAQRDPYA	< -0.25
YEHSAGSPAERQQRPVLPTA	< -0.25
TTSAVN	< -0.25
VKKNLRSTS	< -0.25
FSN	< -0.25
LNQGSSILVIRRVDVYHAHV	< -0.25
LKAVECVTSPT	< -0.25
KGECLITLFKS	< -0.25
RVGKVPAELQFSINFSEALV	< -0.25
VHHSFIESRYLHFRPRENGI	< -0.25
INPRLTYRIVASAAELVSIS	< -0.25
ITRGVHKNPGVPKVRMTLAH	< -0.25
LHTVSSERPFPPCYT	< -0.25
RSCLAACP	< -0.25
TTAHTCCRPREGEQADVISR	< -0.25
LSKGHEITFWLFSRWSHSCA	< -0.25
MSPRRIRGSDL	< -0.25
PENAGRR	< -0.25
SGCSPQNSRRPAAKDILA	< -0.25
YWWV	< -0.25
GCGICA	< -0.25
MLSLLRLDDSNSAVLRQRQ	< -0.25
SVSPQGMIIPTCY	< -0.25

Substance	growth estimate
IHGDGAQARVTGI	< -0.25
LALSFQTNAAA	< -0.25
RRDDVGISLVVTFGLGCPSD	< -0.25
TRGVVGNLCQR	< -0.25
VPGSAGNV	< -0.25
PEDVNTQDTSRH	-0.0269
PRYLAGYPDSYLHRL	< -0.25
FRKIMSRREVGET	< -0.25
QKPDQQGR	< -0.25
NLCLWSNTSAVSKLNPSREP	< -0.25
WDRTSSKGVLPRRKFQLENW	< -0.25
SVLGGPLG	< -0.25
PIGGRGAV	< -0.25
SGLFEVVYICSNRLLLLPHA	< -0.25
SHFRPMGMVVITGA	< -0.25
KSGT	< -0.25
GFQLW	< -0.25
ELKCKGIALARSRYVAPDVH	< -0.25
TIHEVSG	< -0.25
GVVQRVICSGVSQERL	< -0.25
NVIFSMDSYTFEGITVGNTG	< -0.25
SIKQGTWNAPGR	< -0.25
RYA	< -0.25
DPT	< -0.25

Substance	growth estimate
FITASSPLPAVGKRLYDLTP	< -0.25
GSTTWSGNVYAMLRT	< -0.25
VDGGPWQASSPPSQLASRSS	< -0.25
PICSRSSSRWRTGSLTSVEY	< -0.25
LNLRKDLSRWRTHPAVQFIA	< -0.25
KSHG	< -0.25
STELPWRPNGRIRGPAVVYM	< -0.25
SLE	-0.246
WNLY	-0.246
RLRGSSVDLGSMRSQEIYRP	< -0.25
EICCPTILDIRASFRCTRPL	< -0.25
TVLVRGLPAIPSPGVKSCSK	< -0.25
GESESQREGSGERSFISRAF	< -0.25
TAP	< -0.25
HVLIENTHELVVTREAGHLL	< -0.25
RSIP	< -0.25
TSQLPSGAVDTQIPSTMVIP	< -0.25
TATICMWDAGRCPNGLMAHS	< -0.25
LGCLDLARARQVVTPRVVYL	< -0.25
AMRRLGWQCRR	< -0.25
GQRIDQRVLAPKAFDAGHSL	< -0.25
GYCRPRGARATD	< -0.25
PTQPWGGEPPPGF	< -0.25
TVCWAHPTFRCRHVR	< -0.25

Substance	growth estimate
LGYKI	< -0.25
YCTGDRGSCPRLAAHRVVPL	< -0.25
DCMPSYSRGYRIGNNFGRSR	< -0.25
LCSIYGTADCTAGGPQRMRL	< -0.25
TVSVTGYISGQSLDQV	< -0.25
ASQVRDV	< -0.25
SGMLKSSDQVRPPGEDKSQA	< -0.25
CISCYASTVLSQQAL	< -0.25
LDVLTLKMTTT	< -0.25
TIFGQRDSSVVTELRRVVQP	-0.245
REVPQVTGTIYVSKRHACLL	< -0.25
DLPSKVVQQQVLDRGVRTAS	< -0.25
PLTCRCIV	< -0.25
FSMHVKQSRLRIGSVRLTGL	< -0.25
YKATISNQEVVGCASSSPKE	-0.243
GSRKQSETQSTWARLLERLC	< -0.25
LRLR	-0.241 ± 0.013
LSGY	< -0.25
VLAEPRKISTATG	< -0.25
ITSWEGLLWESNFADECERA	-0.0857
WRMGSVPISICPFPGLSTPS	< -0.25
GVYIKAAPMIASVSILRWTV	< -0.25
DLVRLPPV	< -0.25
GRSFGFWGGSVFRPHSCNYK	< -0.25
